Assay results from PubChem BioAssay AID504648 (National Center for Advancing Translational Sciences (NCATS), 2011).
The campaign covered roughly 390,000 compounds. About 610 (0.16%) were called active. The inconclusive results got no clear call from the source; some entries with a clear call stand among them for comparison. Calls come from the whole dose curve; as a rule, active = well fitted inhibition curve with a large enough effect; inconclusive = small, poorly fitted or top-dose-only effect, or effect the other way, or another doubt; inactive = no such curve, though single readings can be large or run the other way. A potency beside an inconclusive call is a rough fit, not a confirmed value.

Assay: Nrf2 qHTS screen for inhibitors: counterscreen for cytotoxicity
Conditions: A549 ARE-Fluc cells, CellTiter-Fluor viability, 18-24 h; activity change, negative = cytotoxicity: at 46 µM (top of the series)
How it was run: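 A549 ARE_Fluc cells in 5% FBS OPTI-MEM were exposed to compounds in concentration-response for 18-24 h at 37 deg C. Viability was read by CellTiter-Fluor fluorescence (Ex 405/Em 525) after 30 min, before the luciferase read.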
% is set by controls: 0 for no effect and ±100 for the full control effect; potency is the fitted concentration of half-maximal effect.

| SMILES | Potency | activity change, negative = cytotoxicity |
| --- | --- | --- |
| Cn1c(=O)c2cc(C(=O)NC3CCCCCC3)sc2c2ccccc21 | inconclusive: 14.6 µM [falling, partial curve, poor fit] | – |
| Cc1ccc(NS(=O)(=O)c2ccc(C(=O)N3CCCN(C)CC3)cc2)cc1 | inconclusive: 4.61 µM [activator, full curve, poor fit] | – |
| O=C1C(Cc2ccccc2)Nc2ncnc(N3CCCCC3)c2N1Cc1ccc(Cl)cc1 (configuration not stated) | inconclusive: 16.4 µM [falling, partial curve, poor fit] | – |
| C=CCOc1ccc(/C=C/C(=O)OCC(=O)NCCCc2ccccc2)cc1 | inactive | – |
| CCCCCOc1ccc2oc(=O)c3c(c2c1)CCCN3C(=O)CN1CCCC(C(=O)OCC)C1 (configuration not stated) | inconclusive: 29.1 µM [falling, single point] | – |
| COc1ccc2cc3c(N)nn(C(=O)C4CCC(C(C)(C)C)CC4)c3nc2c1 (configuration not stated) | inconclusive: 29.1 µM [falling, partial curve, poor fit] | – |
| CN(C(=S)NCCN1CCOCC1)C(c1ccccc1)c1ccccc1 | inconclusive: 4.11 µM [activator, full curve] | – |
| O=C1c2ccccc2C(=O)N1Nc1ccccc1 | inactive | – |
| COc1ccc(Cl)cc1NC(=O)C(C)N1Cc2ccccc2C1=O (configuration not stated) | inconclusive: 7.31 µM [activator, partial curve, poor fit] | – |
| Cc1ccc(C(CC(=O)Nc2ccc(C)cc2C)N2Cc3ccccc3C2=O)cc1 (configuration not stated) | inconclusive: 18.4 µM [falling, single point] | – |
| COc1ccccc1N1C(=O)C2C(c3ccccc3F)NN(C(=O)c3ccc(C)cc3)C2C1=O (configuration not stated) | inactive | – |
| COC(=O)c1c[nH]c2c1-c1cc(C(=O)OCc3ccccc3)n(S(=O)(=O)c3ccc(C)cc3)c1C(=O)C2=O | active: 4.11 µM | – |
| CCCc1oc2ccc(NS(=O)(=O)c3ccc(OC)cc3)cc2c1C(=O)OCC | inconclusive: 1.46 µM [falling, partial curve, poor fit] | – |
| Cc1ccc(-c2[nH]c3ccccc3c2C(C[N+](=O)[O-])c2ccco2)cc1 (configuration not stated) | inactive | – |
| O=C1c2ccccc2C(Nc2ccc3c(c2)OCCO3)N1c1ccc(Cl)cn1 (configuration not stated) | inconclusive: 5.8 µM [activator, partial curve, poor fit] | – |
| Cn1cc(/C=N/n2cnc3sc4c(c3c2=O)CCCC4)c2ccccc21 | inconclusive: 16.4 µM [falling, single point] | – |
| CC1(C)C(c2ccccc2)=NC(c2ccccc2)N1O (configuration not stated) | inconclusive: 32.6 µM [falling, partial curve, poor fit] | – |
| CC1C/C(=N\NC(=O)c2ccc([N+](=O)[O-])cc2)CC(C)(C)C1 (configuration not stated) | inconclusive: 2.91 µM [activator, single point] | – |
| C/C(=N\Nc1ncc(Cl)cc1Cl)c1ccccn1 | inconclusive: 4.61 µM [falling, full curve] | – |
| O=C(CSc1nc(N2CCOCC2)nc(N2CCOCC2)n1)Nc1ccc([N+](=O)[O-])cc1 | inactive | – |
| Cc1c(C)n(C)c2ccc(C(=O)NCCN3CCOCC3)cc12 | inactive | – |

| SMILES | Potency | activity change, negative = cytotoxicity |
| --- | --- | --- |
| CCn1c(C(=O)Nc2cc(C)cc(C)c2)cc2sc(Cl)cc21 | inconclusive: 0.259 µM [activator, full curve, poor fit] | – |
| Cc1cccc2nc(CNC(=O)CC3C(=O)NCCN3Cc3cccc(F)c3)cn12 (configuration not stated) | inactive | – |
| O=[N+]([O-])c1ccc(-c2cc(-c3ccncc3)nc3ccc4ccccc4c23)cc1 | inconclusive: 0.82 µM [activator, partial curve] | – |
| c1csc(CNc2nc(-c3cccs3)nc3ccccc23)c1 | inconclusive: 29.1 µM [falling, single point] | – |
| O=C(NC1(C(F)(F)F)Oc2ccccc2O1)N1CCCC1 | inconclusive: 11.6 µM [falling, partial curve] | – |
| COc1ccc(C(=O)O/N=C(\N)c2ccc(OC)c(OC)c2)c(OC)c1 | inconclusive: 29.1 µM [falling, single point] | – |
| CCc1ccc2[nH]c3nc(SCC(=O)NNC(=O)c4ccc(C(C)(C)C)cc4)nnc3c2c1 | active: 11.6 µM | – |
| O=C(Nc1ccccc1)c1ccc(S(=O)(=O)NCc2ccco2)cc1 | inactive | – |
| C/C(CCC12CC3CC(CC(C3)C1)C2)=N\NC(N)=S | inactive | – |
| c1coc(-c2nn3c(-c4ccco4)nnc3s2)c1 | inconclusive: 23.1 µM [activator, partial curve, poor fit] | – |
| CCSC1=NCN(CCCC(=O)O)CN1 | inconclusive: 7.31 µM [falling, partial curve, poor fit] | – |
| CC(=O)NS(=O)(=O)c1ccc(N2C(=O)CC(Sc3nccc(C)n3)C2=O)cc1 (configuration not stated) | inconclusive: 18.4 µM [falling, partial curve, poor fit] | – |
| O=C(NO)c1ccccc1C(F)(F)F | inconclusive: 29.1 µM [falling, partial curve, poor fit] | – |
| COc1cc(C2Nc3cccc4cccc(c34)N2)cc(OC)c1O | inconclusive: 23.1 µM [falling, partial curve, poor fit] | – |
| CC(C)(C)NC(=O)C(Cc1ccccc1)NS(=O)(=O)c1cccc2nsnc12 (configuration not stated) | inconclusive: 18.4 µM [falling, single point] | – |
| CC(C)N1CCc2c(sc(N)c2C#N)C1 | – | inactive: -6.35% [at 1.84 µM] |
| Cc1ccc(-n2ncc(C(=O)Nc3cc(Cl)ccc3C)c2C2CCNCC2)cc1C | inconclusive: 18.4 µM [falling, partial curve, poor fit] | – |
| CCCC1O[C@@H]2C[C@H]3[C@@H]4CCC5=CC(=O)C=C[C@]5(C)[C@H]4[C@@H](O)C[C@]3(C)[C@]2(C(=O)CO)O1 (some centres not stated) | inactive | – |
| CCc1ccc(CNC(=O)Cc2ccc(NC(=O)C3=C(C)OCCS3)cc2)cc1 | inconclusive: 5.8 µM [falling, partial curve, poor fit] | – |
| Cc1ccc(NC2=CC(=O)C(=O)c3ccccc32)cc1 | inconclusive: 20.6 µM [falling, single point] | – |
| O=[N+]([O-])c1ccc(N2CCN(C(=S)NCc3ccc(Cl)cc3)CC2)cc1 | inconclusive: 29.1 µM [falling, single point] | – |

A different layout for part of the listing above.
SMILES,Potency,"activity change, negative = cytotoxicity"
CC(=O)NS(=O)(=O)c1ccc(N2C(=O)CC(Sc3nccc(C)n3)C2=O)cc1 (configuration not stated),"inconclusive: 18.4 µM [falling, partial curve, poor fit]",–
O=C(NO)c1ccccc1C(F)(F)F,"inconclusive: 29.1 µM [falling, partial curve, poor fit]",–
COc1cc(C2Nc3cccc4cccc(c34)N2)cc(OC)c1O,"inconclusive: 23.1 µM [falling, partial curve, poor fit]",–
